PubChem BioAssay AID652272 | Drosophila RNAi Screening Center – 2013
The screen tested about 21,000 reagents; below is an unselected part of those with a known target gene and a result. Of all reagents, 503 (2.4%) got an active call. 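Raw plate light values, not normalised; calls rest on replicate z-scores that were not deposited; hits include reporter decreases as well as increases.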 Reagents against one gene are numbered here. The record does not give: the amount of reagent, the time to read-out.

Assay: 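Finding fly genes that regulate Hedgehog signal transduction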 (primary screen)
Cell system: Drosophila clone 8 (Cl8) cells
Knock-down reagent: long dsRNA against Drosophila genes
Measured: 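Firefly light from a Hedgehog-responsive ptc promoter reporter and Renilla reference light, both read on a plate reader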
Scale: firefly Hh reporter signal: higher = more ptc reporter light; Renilla reference signal: higher = more Renilla control light
Rule for the call: 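Called a hit if the two-replicate mean z-score lies below -2 or above +3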
Meaning of the calls: active = hit: reporter lowered or raised; inactive = not a hit

gene knocked down	reagent	firefly Hh reporter signal, replicate 1	firefly Hh reporter signal, replicate 2	firefly Hh reporter signal, replicate 3	Renilla reference signal, replicate 1	Renilla reference signal, replicate 2	call
Bruce	1	68167	1.36e5		2247	3852	inactive
CG18581	1	91120			4016	2413	inactive
Nhe3	1	1.11e5	62221		2660	5831	inactive
CG18367	1	1.18e5	94074		3282	6419	inactive
CG14005	1	1.25e5	48882		4300	2052	inactive
CG5853	1	5.22e5	1.96e5		27645	9305	inactive
CG5853	2	1.11e5	60519		4528	2992	inactive
FMRFaR	1	75488	47090		2528	3136	inactive
Dgp-1	1	79305	62262		2232	4352	inactive
Gr63a	1	59049	51802		1971	3670	inactive
e(r)	1	93942	89062		2675	1832	inactive
Hsc70-3	1	31536	1.37e5		1186	5617	inactive
ms(2)34Fe	1	1.19e5	51845		2986	4983	inactive
CG1090	1	1.58e5	1.31e5		6988	4854	inactive
thr	1	62531	32188		3289	1888	inactive
CG10211	1	93175	52731		2424	2715	inactive
sbb	1	88172	2.58e5		2899	10486	inactive
sbb	2	93281	33744		2859	2794	inactive
Rpn7	1	25385	19204		2643	2000	active
mRpL23	1	73637	52043		1996	3496	inactive
CG13192	1	60614	64736		1811	4130	inactive
Ilp2	1	1.18e5	43751		5040	1388	inactive
CG8837	1	1.01e5	42997		2485	4652	inactive
CG17193	1	6.22e5	93760		30597	2821	inactive
ste24a	1	1.71e5	55968		5954	2730	inactive
dpr3	1	87106	79572		2391	2087	inactive
dpr3	2	69307	81722		2261	2139	inactive
CG15239	1	65621	1.54e5		2121	6883	inactive
dgt4	1	51623	1.40e5		1769	5840	inactive
ninaE	1	5.60e5	1.12e5		28400	2980	inactive
CG14088	1	1.03e5	96772		3783	2583	inactive
CG42808	1	1.11e5	58884		4313	2786	inactive
Flad2	1	89117	50231		2313	5075	inactive
CG7560	1	63060	72616	80236	6032	5570	inactive
CG5644	1	47594	41799		4995	3241	inactive
HINT1	1	1.21e5	88416		2365	2064	inactive
Hex-C	1	66663	56247		1673	3952	inactive
CG14668	1	47251	96197		1923	2864	inactive
CG12662	1	62960	2.13e5		2232	9056	inactive
CG15641	1	62040	2.03e5		1414	7462	inactive
arr	1	87296	41608		2178	3152	inactive
Baldspot	1	1.56e5			1495	7011	inactive
Trf4-2	1	6.09e5	1.59e5		31319	4523	inactive
CG13615	1	5.41e5	98566		28272	3619	inactive
Regnase-1	1	82330	65537		3739	2656	inactive
CG4199	1	1.03e5	61208		1933	1805	inactive
CG34357	1	1.21e5	1.17e5		4164	3010	inactive
CG34357	2	65847	91394		2423	2329	inactive
CG34357	3	1.23e5	1.60e5		4272	4264	inactive
CG5334	1	95419	2.81e5		3212	10800	inactive
Lsp2	1	41499	44765	46199	4092	2896	inactive
Lsp2	2	39178	30868	61244	3370	3760	inactive
Ir52b	1	89555	41012		2436	1379	inactive
CG33460	1	1.17e5	2.43e5		3233	10178	inactive
CG3701 (retired record)	1	79043	81680		1218	6944	inactive
CG3701 (retired record)	2	63383	68532		1011	6306	inactive
bwa	1	1.47e5	2.22e5		4038	10395	inactive
bwa	2	96540	63193		2746	5498	inactive

Already shown: 3 of the entries above.
gene knocked down	reagent	firefly Hh reporter signal, replicate 1	firefly Hh reporter signal, replicate 2	firefly Hh reporter signal, replicate 3	Renilla reference signal, replicate 1	Renilla reference signal, replicate 2	call
Gr63a	1	59049	51802		1971	3670	inactive
e(r)	1	93942	89062		2675	1832	inactive
Hsc70-3	1	31536	1.37e5		1186	5617	inactive
